The other results are listed elsewhere or left out.
What follows are targets tested with CN1CCC(CNc2ccc3ncc(-c4cccc(OC(F)(F)F)c4)n3n2)CC1 (assay: log2 fold change, soluble protein after heating vs DMSO (PISA); higher = thermal stabilisation; K562 cells, 10 uM, 30 min; active = over 0.2 and 3.5 SD of the protein, either way, in both replicates (recomputed)).
Outline: (§1)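 K562 cells (2×10^6 cells/mL) were treated with 10 μM compound for 30 min, and aliquots were heated for 3 min over 48°C-58°C. Pooled aliquots were extracted in PBS with 0.5% NP-40 at 4°C, and the supernatant after 21,000xg for 90 min was measured by TMTpro 16plex LC-MS/MS with channel sums equalised. Reported thermal stability, relative to control samples and from duplicates, is a log2 fold change.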

Sequences of proteins named here, by UniProt entry; tags and fusion partners are left off. A change or cut given only in a name is not applied to a line headed by its entry.
UniProt Q6P3S6: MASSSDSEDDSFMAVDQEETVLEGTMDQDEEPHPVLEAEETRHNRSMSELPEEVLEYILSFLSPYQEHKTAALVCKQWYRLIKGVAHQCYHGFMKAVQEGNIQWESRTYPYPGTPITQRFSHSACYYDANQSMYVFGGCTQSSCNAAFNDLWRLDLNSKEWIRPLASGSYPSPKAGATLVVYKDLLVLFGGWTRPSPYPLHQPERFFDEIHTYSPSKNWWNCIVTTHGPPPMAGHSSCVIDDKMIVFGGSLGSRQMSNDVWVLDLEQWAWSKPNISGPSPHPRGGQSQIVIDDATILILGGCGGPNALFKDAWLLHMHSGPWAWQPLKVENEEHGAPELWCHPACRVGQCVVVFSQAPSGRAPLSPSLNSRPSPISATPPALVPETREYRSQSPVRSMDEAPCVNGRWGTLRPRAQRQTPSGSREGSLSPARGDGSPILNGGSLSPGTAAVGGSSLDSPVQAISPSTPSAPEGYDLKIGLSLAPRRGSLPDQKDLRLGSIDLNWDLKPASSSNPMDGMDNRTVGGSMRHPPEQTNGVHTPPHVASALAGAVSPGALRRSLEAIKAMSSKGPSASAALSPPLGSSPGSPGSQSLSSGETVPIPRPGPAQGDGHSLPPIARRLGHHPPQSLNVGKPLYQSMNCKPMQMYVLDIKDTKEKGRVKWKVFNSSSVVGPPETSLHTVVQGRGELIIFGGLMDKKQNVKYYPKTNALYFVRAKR
UniProt Q9Y3D6: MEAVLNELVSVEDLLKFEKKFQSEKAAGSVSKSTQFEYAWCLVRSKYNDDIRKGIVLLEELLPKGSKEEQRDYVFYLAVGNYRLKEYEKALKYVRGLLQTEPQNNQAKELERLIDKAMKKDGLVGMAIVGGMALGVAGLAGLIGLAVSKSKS
UniProt P22830: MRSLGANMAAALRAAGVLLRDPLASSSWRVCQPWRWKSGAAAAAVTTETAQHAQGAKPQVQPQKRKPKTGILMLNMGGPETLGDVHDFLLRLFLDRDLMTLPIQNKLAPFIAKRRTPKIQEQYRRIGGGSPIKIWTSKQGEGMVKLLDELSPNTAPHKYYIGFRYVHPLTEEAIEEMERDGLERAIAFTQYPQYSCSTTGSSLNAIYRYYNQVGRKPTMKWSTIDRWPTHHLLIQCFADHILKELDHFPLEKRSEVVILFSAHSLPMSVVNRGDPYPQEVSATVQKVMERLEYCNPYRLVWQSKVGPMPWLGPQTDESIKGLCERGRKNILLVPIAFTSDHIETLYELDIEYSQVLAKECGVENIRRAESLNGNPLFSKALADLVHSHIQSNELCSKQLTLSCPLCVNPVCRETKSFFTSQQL
UniProt Q9BXW9: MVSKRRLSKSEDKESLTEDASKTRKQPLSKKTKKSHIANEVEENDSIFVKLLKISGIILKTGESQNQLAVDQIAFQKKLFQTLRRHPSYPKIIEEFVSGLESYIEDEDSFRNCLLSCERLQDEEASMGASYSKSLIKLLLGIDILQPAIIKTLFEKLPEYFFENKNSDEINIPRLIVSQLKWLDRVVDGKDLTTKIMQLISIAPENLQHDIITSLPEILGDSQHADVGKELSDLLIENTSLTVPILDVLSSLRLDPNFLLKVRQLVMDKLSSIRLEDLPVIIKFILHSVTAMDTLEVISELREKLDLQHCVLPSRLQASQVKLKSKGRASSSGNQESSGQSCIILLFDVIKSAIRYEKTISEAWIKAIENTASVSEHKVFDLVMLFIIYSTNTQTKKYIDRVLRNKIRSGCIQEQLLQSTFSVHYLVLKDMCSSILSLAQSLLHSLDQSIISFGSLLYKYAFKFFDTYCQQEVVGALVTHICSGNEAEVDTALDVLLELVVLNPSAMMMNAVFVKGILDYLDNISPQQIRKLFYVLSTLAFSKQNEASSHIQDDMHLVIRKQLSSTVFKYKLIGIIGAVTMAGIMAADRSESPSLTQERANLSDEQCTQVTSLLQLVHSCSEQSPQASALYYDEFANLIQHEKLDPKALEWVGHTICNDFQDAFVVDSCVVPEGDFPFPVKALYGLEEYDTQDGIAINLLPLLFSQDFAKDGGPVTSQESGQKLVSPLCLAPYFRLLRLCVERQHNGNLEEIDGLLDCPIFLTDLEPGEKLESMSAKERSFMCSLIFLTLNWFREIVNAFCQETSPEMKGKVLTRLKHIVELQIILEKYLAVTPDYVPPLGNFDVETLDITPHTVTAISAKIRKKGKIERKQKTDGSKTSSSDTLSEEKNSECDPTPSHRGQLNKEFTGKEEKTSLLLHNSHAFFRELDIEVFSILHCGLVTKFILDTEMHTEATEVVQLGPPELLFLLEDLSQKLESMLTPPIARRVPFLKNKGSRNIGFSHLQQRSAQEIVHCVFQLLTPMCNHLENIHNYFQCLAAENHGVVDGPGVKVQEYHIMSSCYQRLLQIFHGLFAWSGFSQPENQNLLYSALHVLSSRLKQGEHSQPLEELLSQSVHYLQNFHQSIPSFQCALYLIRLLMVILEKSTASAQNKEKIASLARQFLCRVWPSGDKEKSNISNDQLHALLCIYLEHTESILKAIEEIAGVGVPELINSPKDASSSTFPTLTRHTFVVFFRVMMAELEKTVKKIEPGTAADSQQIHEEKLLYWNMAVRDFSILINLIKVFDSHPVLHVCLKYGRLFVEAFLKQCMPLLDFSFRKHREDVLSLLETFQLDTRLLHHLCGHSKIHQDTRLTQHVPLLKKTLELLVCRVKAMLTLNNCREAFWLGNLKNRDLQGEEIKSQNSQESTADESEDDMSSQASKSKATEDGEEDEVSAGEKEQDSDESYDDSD
UniProt P98173: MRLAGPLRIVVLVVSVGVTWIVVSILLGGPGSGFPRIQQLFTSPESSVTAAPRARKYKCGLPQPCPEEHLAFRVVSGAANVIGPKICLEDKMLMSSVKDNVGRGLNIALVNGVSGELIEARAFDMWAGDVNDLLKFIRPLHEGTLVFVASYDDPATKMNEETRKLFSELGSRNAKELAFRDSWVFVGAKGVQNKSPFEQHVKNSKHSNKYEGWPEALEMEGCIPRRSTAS
UniProt Q96SL8: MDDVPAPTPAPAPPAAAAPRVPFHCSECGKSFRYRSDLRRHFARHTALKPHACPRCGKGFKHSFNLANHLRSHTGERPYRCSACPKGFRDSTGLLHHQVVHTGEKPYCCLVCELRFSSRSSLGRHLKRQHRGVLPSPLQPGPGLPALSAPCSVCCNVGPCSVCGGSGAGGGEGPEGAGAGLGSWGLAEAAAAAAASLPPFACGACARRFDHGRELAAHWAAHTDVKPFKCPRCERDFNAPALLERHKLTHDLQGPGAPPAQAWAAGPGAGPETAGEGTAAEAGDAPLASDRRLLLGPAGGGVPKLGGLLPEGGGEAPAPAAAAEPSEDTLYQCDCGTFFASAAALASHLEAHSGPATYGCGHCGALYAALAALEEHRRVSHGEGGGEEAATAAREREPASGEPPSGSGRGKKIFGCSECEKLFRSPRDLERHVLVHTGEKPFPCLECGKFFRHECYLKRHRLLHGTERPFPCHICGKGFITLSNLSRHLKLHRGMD
UniProt O43427: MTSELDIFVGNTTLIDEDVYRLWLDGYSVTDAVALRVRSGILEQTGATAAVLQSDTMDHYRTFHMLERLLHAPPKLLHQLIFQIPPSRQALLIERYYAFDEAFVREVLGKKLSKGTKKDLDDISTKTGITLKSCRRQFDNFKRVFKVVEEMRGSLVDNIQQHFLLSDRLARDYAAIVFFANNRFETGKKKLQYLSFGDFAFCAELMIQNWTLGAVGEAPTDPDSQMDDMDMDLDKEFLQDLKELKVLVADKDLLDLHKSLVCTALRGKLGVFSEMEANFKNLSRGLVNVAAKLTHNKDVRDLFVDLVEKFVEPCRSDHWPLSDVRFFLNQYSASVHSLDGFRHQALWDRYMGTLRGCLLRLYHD
UniProt Q9Y324: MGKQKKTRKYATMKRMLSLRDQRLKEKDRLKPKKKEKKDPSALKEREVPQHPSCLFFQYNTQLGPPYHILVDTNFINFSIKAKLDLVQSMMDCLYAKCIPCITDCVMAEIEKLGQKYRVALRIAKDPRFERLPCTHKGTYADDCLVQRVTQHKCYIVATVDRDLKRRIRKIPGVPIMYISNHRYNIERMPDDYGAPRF
UniProt Q96HJ9: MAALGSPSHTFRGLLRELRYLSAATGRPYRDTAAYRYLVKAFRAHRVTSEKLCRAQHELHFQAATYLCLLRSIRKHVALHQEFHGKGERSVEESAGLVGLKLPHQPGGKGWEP
UniProt Q8N8J7: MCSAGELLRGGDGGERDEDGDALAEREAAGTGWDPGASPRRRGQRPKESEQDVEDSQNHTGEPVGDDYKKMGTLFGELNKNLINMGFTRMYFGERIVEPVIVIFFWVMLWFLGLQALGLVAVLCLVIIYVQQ
UniProt Q9Y613: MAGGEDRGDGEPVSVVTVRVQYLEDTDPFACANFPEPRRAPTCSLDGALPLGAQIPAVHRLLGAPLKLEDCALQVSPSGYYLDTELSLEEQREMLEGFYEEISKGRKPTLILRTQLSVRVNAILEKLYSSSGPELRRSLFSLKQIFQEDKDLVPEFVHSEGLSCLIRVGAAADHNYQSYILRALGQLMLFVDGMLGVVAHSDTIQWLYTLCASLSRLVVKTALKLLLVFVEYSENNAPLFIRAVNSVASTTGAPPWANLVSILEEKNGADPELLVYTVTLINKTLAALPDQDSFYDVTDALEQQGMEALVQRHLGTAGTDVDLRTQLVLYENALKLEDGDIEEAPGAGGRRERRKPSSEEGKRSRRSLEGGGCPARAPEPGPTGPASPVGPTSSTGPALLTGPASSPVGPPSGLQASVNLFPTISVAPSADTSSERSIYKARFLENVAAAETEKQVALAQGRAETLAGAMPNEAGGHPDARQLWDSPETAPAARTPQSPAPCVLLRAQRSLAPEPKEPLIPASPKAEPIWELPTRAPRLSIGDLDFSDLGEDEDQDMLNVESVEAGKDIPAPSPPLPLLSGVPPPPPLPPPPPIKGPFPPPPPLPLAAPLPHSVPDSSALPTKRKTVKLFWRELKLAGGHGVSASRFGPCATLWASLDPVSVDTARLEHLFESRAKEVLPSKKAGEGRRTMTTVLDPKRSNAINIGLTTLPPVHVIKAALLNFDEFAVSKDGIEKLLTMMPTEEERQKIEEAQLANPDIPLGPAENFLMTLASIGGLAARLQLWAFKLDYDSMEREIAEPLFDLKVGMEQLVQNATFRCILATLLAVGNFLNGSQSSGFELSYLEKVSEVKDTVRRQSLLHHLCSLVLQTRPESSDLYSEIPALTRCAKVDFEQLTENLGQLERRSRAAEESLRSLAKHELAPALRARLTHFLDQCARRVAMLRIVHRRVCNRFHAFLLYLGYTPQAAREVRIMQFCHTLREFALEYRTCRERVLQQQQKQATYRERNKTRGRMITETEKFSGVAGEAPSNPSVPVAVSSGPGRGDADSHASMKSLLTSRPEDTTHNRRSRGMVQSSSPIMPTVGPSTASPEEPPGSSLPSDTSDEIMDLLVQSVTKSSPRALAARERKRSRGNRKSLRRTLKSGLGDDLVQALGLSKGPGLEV
UniProt P14324: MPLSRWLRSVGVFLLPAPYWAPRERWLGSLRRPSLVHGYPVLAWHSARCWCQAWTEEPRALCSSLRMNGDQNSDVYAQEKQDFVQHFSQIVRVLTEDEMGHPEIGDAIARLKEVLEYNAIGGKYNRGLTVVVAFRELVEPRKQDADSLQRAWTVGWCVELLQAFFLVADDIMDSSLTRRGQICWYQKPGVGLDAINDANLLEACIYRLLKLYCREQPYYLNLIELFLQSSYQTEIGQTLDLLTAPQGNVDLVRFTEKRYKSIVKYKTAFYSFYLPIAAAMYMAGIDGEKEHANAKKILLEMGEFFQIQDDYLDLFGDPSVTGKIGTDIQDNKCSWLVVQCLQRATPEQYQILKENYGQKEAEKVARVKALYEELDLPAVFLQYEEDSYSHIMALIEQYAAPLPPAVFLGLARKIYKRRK
UniProt Q9NRD1: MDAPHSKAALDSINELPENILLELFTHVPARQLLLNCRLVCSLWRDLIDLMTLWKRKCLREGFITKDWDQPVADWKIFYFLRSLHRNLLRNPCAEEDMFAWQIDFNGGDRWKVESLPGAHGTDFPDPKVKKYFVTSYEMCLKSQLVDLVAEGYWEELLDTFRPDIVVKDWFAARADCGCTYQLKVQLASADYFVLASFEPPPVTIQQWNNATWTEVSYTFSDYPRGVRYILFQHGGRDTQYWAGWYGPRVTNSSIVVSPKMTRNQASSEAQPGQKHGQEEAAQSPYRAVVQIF
UniProt P39748, whole entry, looked up: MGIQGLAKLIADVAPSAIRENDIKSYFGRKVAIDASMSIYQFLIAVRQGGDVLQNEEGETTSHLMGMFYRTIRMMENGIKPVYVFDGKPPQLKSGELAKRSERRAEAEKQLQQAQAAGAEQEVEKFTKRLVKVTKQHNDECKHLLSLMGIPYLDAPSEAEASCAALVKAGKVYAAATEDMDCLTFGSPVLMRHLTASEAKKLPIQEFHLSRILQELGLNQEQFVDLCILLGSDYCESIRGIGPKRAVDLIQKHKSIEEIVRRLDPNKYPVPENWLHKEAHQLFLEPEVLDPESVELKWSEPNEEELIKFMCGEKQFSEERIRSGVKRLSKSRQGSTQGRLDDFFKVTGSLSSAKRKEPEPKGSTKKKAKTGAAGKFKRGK

Row | Target | log2 fold change
1 | FGB (UniProt P02675) | inactive: -0.093
2 | FKBP4 (UniProt Q02790) | inactive: -0.119
3 | FBXO42 (UniProt Q6P3S6) | inactive: 0.021
4 | FASTKD1 (UniProt Q53R41) | inactive: -0.188
5 | FAM53C (UniProt Q9NYF3) | inactive: -0.2
6 | FIS1 (UniProt Q9Y3D6) | inactive: -0.075
7 | FDFT1 (UniProt P37268) | inactive: 0.067
8 | FECH isoform 2 (UniProt P22830) | inactive: 0.163
9 | FANCD2 isoform 1 (UniProt Q9BXW9) | inactive: -0.233
10 | FAM3A (UniProt P98173) | inactive: -0.128
11 | FER (UniProt P16591) | inactive: -0.073
12 | FIZ1 (UniProt Q96SL8) | inactive: 0.024
13 | FIBP (UniProt O43427) | inactive: -0.229
14 | FCHSD1 (UniProt Q86WN1) | inactive: 0.008
15 | FCF1 (UniProt Q9Y324) | inactive: 0.219
16 | FBXO9 (UniProt Q9UK97) | inactive: 0.203
17 | FMC1 (UniProt Q96HJ9) | inactive: -0.02
18 | FAM241A (UniProt Q8N8J7) | inactive: 0.08
19 | FHOD1 (UniProt Q9Y613) | inactive: -0.022
20 | FMR1 (UniProt Q06787) | inactive: 0.279
21 | FNTA (UniProt P49354) | inactive: 0.015
22 | FAM76A isoform 3 (UniProt Q8TAV0) | inactive: 0.022
23 | FDPS (UniProt P14324) | active: -0.608
24 | FBXO6 (UniProt Q9NRD1) | active: 0.366
25 | FAT2 (UniProt Q9NYQ8) | inactive: 0.109
26 | FANCI (UniProt Q9NVI1) | inactive: -0.188
27 | FEN1 (UniProt P39748) | inactive: -0.283
28 | FAM210B (UniProt Q96KR6) | inactive: 0.14
29 | FAT4 (UniProt Q6V0I7) | inactive: -0.04

What follows are targets tested with CN1CCN(CCOc2cc(OC3CCOCC3)c3c(Nc4c(Cl)ccc5c4OCO5)ncnc3c2)CC1 [saracatinib] in the same assay as above.
Outline: as §1

Row | Target | log2 fold change
30 | FKBP4 (UniProt Q02790) | inactive: -0.048
31 | FBXO42 (UniProt Q6P3S6) | inactive: -0.032
32 | FASTKD1 (UniProt Q53R41) | inactive: -0.118
33 | FLT1 (UniProt P17948) | inactive: 0.071
34 | FCHO1 (UniProt O14526) | inactive: -0.064
35 | FIS1 (UniProt Q9Y3D6) | active: 0.333
36 | FDFT1 (UniProt P37268) | inactive: 0.071
37 | FBXO38 (UniProt Q6PIJ6) | inactive: -0.053
38 | FECH isoform 2 (UniProt P22830) | inactive: -0.035
39 | FAM53B (UniProt Q14153) | inactive: 0.032
40 | FANCD2 isoform 1 (UniProt Q9BXW9) | inactive: -0.038
41 | FAM3A (UniProt P98173) | inactive: 0.038
42 | FIZ1 (UniProt Q96SL8) | inactive: 0.149
43 | FIBP (UniProt O43427) | inactive: -0.074
44 | FCHSD1 (UniProt Q86WN1) | inactive: -0.058
45 | FCF1 (UniProt Q9Y324) | inactive: -0.111
46 | FBXO9 (UniProt Q9UK97) | inactive: -0.024
47 | FMC1 (UniProt Q96HJ9) | inactive: 0.139
48 | FAM241A (UniProt Q8N8J7) | inactive: -0.012
49 | FHOD1 (UniProt Q9Y613) | inactive: -0.143
50 | FNTA (UniProt P49354) | inactive: 0.084
51 | FAM222B (UniProt Q8WU58) | inactive: -0.01
52 | FDPS (UniProt P14324) | inactive: -0.151
53 | FBXO6 (UniProt Q9NRD1) | inactive: 0.042
54 | FAT2 (UniProt Q9NYQ8) | inactive: -0.243
55 | FANCI (UniProt Q9NVI1) | inactive: -0.022
56 | FEN1 (UniProt P39748) | inactive: -0.087
57 | FAM210B (UniProt Q96KR6) | inactive: 0.063

The targets below were run with CN1CCN(c2nc(C3=C(c4c[nH]c5ccccc45)C(=O)NC3=O)c3ccccc3n2)CC1 [sotrastaurin] in the same assay as above.
Outline: as §1

Row | Target | log2 fold change
58 | FGB (UniProt P02675) | inactive: -0.027
59 | FKBP4 (UniProt Q02790) | inactive: -0.022
60 | FBXO42 (UniProt Q6P3S6) | inactive: 0.051
61 | FASTKD1 (UniProt Q53R41) | inactive: -0.046
62 | FAM89A (UniProt Q96GI7) | inactive: 0.042
63 | FAM53C (UniProt Q9NYF3) | inactive: 0.003
64 | FCHO1 (UniProt O14526) | inactive: -0.162
65 | FIS1 (UniProt Q9Y3D6) | inactive: 0.016
66 | FDFT1 (UniProt P37268) | active: 0.604
67 | FBXO38 (UniProt Q6PIJ6) | inactive: -0.021
68 | FECH isoform 2 (UniProt P22830) | inactive: 0.008
69 | FANCD2 isoform 1 (UniProt Q9BXW9) | inactive: 0.017
70 | FAM3A (UniProt P98173) | inactive: 0.001
71 | FER (UniProt P16591) | inactive: 0.14
72 | FBXL8 (UniProt Q96CD0) | inactive: -0.418
73 | FIZ1 (UniProt Q96SL8) | inactive: 0

Row | Target | log2 fold change
74 | FIBP (UniProt O43427) | inactive: -0.05
75 | FCHSD1 (UniProt Q86WN1) | inactive: -0.015
76 | FCF1 (UniProt Q9Y324) | inactive: -0.116
77 | FMC1 (UniProt Q96HJ9) | inactive: 0.09
78 | FAM241A (UniProt Q8N8J7) | active: -0.632
79 | FHOD1 (UniProt Q9Y613) | inactive: -0.112
80 | FMR1 (UniProt Q06787) | inactive: -0.105
81 | FNTA (UniProt P49354) | inactive: 0.141
82 | FAM76A isoform 3 (UniProt Q8TAV0) | inactive: 0.053
83 | FDPS (UniProt P14324) | inactive: -0.041
84 | FBXO6 (UniProt Q9NRD1) | inactive: -0.085
85 | FANCI (UniProt Q9NVI1) | inactive: -0.099
86 | FEN1 (UniProt P39748) | inactive: -0.028
87 | FAM210B (UniProt Q96KR6) | inactive: 0.075
88 | FAT4 (UniProt Q6V0I7) | inactive: 0.128
